{
  "source": "paper PMC7294778",
  "binders": {"B1": {"name": "Kns1-myc13 (protein, UniProt P32350 1-737)", "chain": "MSQNIQIGTRKRSRANMNNSTTTGPANNTSSNKTFLDNFEETRTNKLLDEMFARQNSFLTDNLRNSLDLNQADNPLRPRQHQHQLFLDNENAIELDEEPRIINTTINNSNNHNSSRVDEDADDDIIFIKEQPIQFSSPLILPSSSSINNNNNIVTSNNPGCGTAATSNSTYITTPKKFKKQRTISLPQLPLSKLSYQSNYFNVPDQTNAIVPRVTQTENELLHLTGSCAKTLEGNKAVNLTIAHSTSPFSNPPAQIASLPQSNLKKQIGSSLRKFTSNGSSESASSNKSNFKTDKDGHYVYQENDIFGSGGRFVVKDLLGQGTFGKVLKCIDNKYEPNYVAVKVIRAVDRYREAAKTELRILQTILNNDPQGQFQCLLLRECFDYKNHICLVTDLYGRSIYDFMCSNGIARFPGSHIQAIARQLIRSVCFLHDLGIIHTDLKPENILICDETHIAQKLPLKTVQSLSKRRREASKGKRKILKNPEIKIIDFGSAIFHYEYHPPVISTRHYRAPEIVLGLGWSFPCDIWSIACVLVELVIGESLYPIHENLEHMAMMQRINGTPFPTDIIDKMFYKSKHKLGNSPSDLNSTVIKHFDRKTLSLQWPEKNKRGDTITTEKSMKRVLQSCDRLDIYISKVLKQDYGDSLSINWNLPPEKNWSLINSKLAWKRQTHSSSSSTTDELDKETFLFWYWFIDLLRKMFEFDPTKRITAKDALDHEWFNLGILDDGIATYNNTQG"}},
  "target": "T1, Sit4-HA (S. cerevisiae) (UniProt P20604)",
  "T1 sequence": "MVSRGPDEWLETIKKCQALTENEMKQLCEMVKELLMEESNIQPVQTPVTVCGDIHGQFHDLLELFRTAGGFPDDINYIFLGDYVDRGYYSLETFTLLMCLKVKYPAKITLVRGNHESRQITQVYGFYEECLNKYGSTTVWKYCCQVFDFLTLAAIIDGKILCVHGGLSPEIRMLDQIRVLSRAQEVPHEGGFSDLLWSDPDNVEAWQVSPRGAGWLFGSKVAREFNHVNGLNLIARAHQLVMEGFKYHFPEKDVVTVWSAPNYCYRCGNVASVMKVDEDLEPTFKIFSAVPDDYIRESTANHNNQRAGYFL",
  "assay": "co-IP; extracts of cells co-expressing KNS1-myc13 and SIT4-HA, grown exponentially in YPD at 30°C, treated or not (mock) with 300 nM rapamycin for 1 hr; lysis buffer 50 mM NaCl, 150 mM Tris-HCl pH 8.0, 0.1% NP40, 1 mM EDTA, 1 mM EGTA, 1 mM PMSF; immunoprecipitated with anti-HA antibody and protein A/G beads; Western blot",
  "note": "These are yes or no findings as the source states them, for the method shown. In cells and extracts the contact can be indirect. Some entries that bind do so weakly or less than the wild type. Sequences can lack the tags named with a protein.",
  "data": [
    {"binder": "B1", "values": [
      {"measurement": "binding", "result": "binds"}
    ]}
  ]
}
